Experimental data reported in patent publication US11884647B2, “Compounds and methods for targeting pathogenic blood vessels” (THE REGENTS OF THE UNIVERSITY OF CALIFORNIA, priority 2019, dated 2024).
The name of at least one read-out is uncertain.

Test system: tumor endothelial cells (CT26.CL25 colon cancer tumor)
Experiment: Colon CT26 ex vivo model of tumor angiogenesis
Format: cell-based, mouse
Details: Conc. 10 μm
Outline: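 Explant pieces of CT26 tumor (about 0.075 mm^3) were embedded in Matrigel and grown in endothelial growth medium at 37 °C for about 7 days until endothelial outgrowth appeared, then treated. Cell death was read about 48 h after drug addition by fluorescein diacetate (live) and propidium iodide (dead) staining with red/green imaging.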

SMILES	48 hrs (morphology observations after 48 hours)
CCCCCCCOc1ccc(S(=O)(=O)c2cnc3ccc([S+](C)[O-])cc3c2N2CCC(N3CCCC(O)C3)CC2)cc1 (stereo not shown) [compound 254, 1′-(3-((4-(heptyloxy)phenyl)sulfonyl)-6-(methylsulfinyl)quinolin-4-yl)-[1,4′-bipiperidin]-3-ol]	** (more than 50% but less than 100% of endothelial cells vesicularize in cell shape)

Test system: tumor endothelial cells (LL/2 lung cancer tumor)
Experiment: Lung LL2 ex vivo model of tumor angiogenesis
Format: cell-based, mouse
Details: Conc. 10 μm
Outline: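 Read-out is live/dead fluorescence imaging (fluorescein diacetate green, propidium iodide red, 10 min at 37° C) at 2×, taken e.g. 48 h after drug addition. Fragments of mouse LL2 tumor are cultured in Matrigel with endothelial growth medium, usually 4 days, until new endothelial cells grow out, then treated.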

SMILES	48 hrs (morphology observations after 48 hours)
CCCCCCCOc1ccc(S(=O)(=O)c2cnc3ccc([S+](C)[O-])cc3c2N2CCC(N3CCC(O)(c4ccccc4)CC3)CC2)cc1 (stereo not shown) [compound 263, 1′-(3-((4-(heptyloxy)phenyl)sulfonyl)-6-(methylsulfinyl)quinolin-4-yl)-4-phenyl-[1,4′-bipiperidin]-4-ol]	**** (100% of endothelial cells vesicularize in cell shape and look flattened in morphology (indicating disintegration of the cell body))
CCOC(=O)c1ccc2ncc(S(=O)(=O)c3ccc(OC)cc3)c(N3CCCN(CCN4CCCC4)CC3)c2c1 [compound 180, ethyl 3-((4-methoxyphenyl)sulfonyl)-4-(4-(2-(pyrrolidin-1-yl)ethyl)-1,4-diazepan-1-yl)quinoline-6-carboxylate]	*** (100% of endothelial cells vesicularize in cell shape)
CCCCCCCOc1ccc(S(=O)(=O)c2cnc3ccc([S+](C)[O-])cc3c2N2CCN(C3CCN(Cc4ccccc4)C3)CC2)cc1 (stereo not shown) [compound 278, 4-(4-(1-benzylpyrrolidin-3-yl)piperazin-1-yl)-3-((4-(heptyloxy)phenyl)sulfonyl)-6-(methylsulfinyl)quinoline]	* (50% or less of cells vesicularize in cell shape)

Same assay, conditions: Conc. 20 μm

SMILES	48 hrs (morphology observations after 48 hours)
CCCCCCCOc1ccc(S(=O)(=O)c2cnc3ccc([S+](C)[O-])cc3c2N2CCC(N3CCCC(O)C3)CC2)cc1 (stereo not shown) [compound 254, 1′-(3-((4-(heptyloxy)phenyl)sulfonyl)-6-(methylsulfinyl)quinolin-4-yl)-[1,4′-bipiperidin]-3-ol]	*** (100% of endothelial cells vesicularize in cell shape)
CCCCCCCCCCCCOc1ccc(S(=O)(=O)c2cnc3ccc([S+](C)[O-])cc3c2N2CCC(N3CCC(N4CCCC(O)C4)CC3)CC2)cc1 (stereo not shown) [compound 343, 1″-(3-((4-(dodecyloxy)phenyl)sulfonyl)-6-(methylsulfinyl)quinolin-4-yl)-[1,4′:1′,4″-terpiperidin]-3-ol]	*** (100% of endothelial cells vesicularize in cell shape)
CCCCCCCCCCOc1ccc(S(=O)(=O)c2cnc3ccc([S+](C)[O-])cc3c2N2CCC(N3CCC(O)(c4ccccc4)CC3)CC2)cc1 (stereo not shown) [compound 270, 1′-(3-((4-(decyloxy)phenyl)sulfonyl)-6-(methylsulfinyl)quinolin-4-yl)-4-phenyl-[1,4′-bipiperidin]-4-ol]	* (50% or less of cells vesicularize in cell shape)
CCCCCCCCCCOc1ccc(S(=O)(=O)c2cnc3ccc([S+](C)[O-])cc3c2N2CCC(N3CCC(N4CCCCC4)CC3)CC2)cc1 (stereo not shown) [compound 269, 4-([1,4′:1′,4″-terpiperidin]-1″-yl)-3-((4-(decyloxy)phenyl)sulfonyl)-6-(methylsulfinyl)quinoline]	**** (100% of endothelial cells vesicularize in cell shape and look flattened in morphology (indicating disintegration of the cell body))
CC(C)CCCC(C)CCOc1ccc(S(=O)(=O)c2cnc3ccc([S+](C)[O-])cc3c2N2CCC(N3CCC(N4CCCCC4)CC3)CC2)cc1 (stereo not shown) [compound 289, 4-([1,4′:1′,4″-terpiperidin]-1″-yl)-3-((4-((3,7-dimethyloctyl)oxy)phenyl)sulfonyl)-6-(methylsulfinyl)quinoline]	** (more than 50% but less than 100% of endothelial cells vesicularize in cell shape)
CCCCCCCOc1ccc(S(=O)(=O)c2cnc3ccc(SC)cc3c2N2CCC(N3CCN(CCO)CC3)CC2)cc1 [compound 250, 2-(4-(1-(3-((4-(heptyloxy)phenyl)sulfonyl)-6-(methylthio)quinolin-4-yl)piperidin-4-yl)piperazin-1-yl)ethan-1-ol]	*** (100% of endothelial cells vesicularize in cell shape)
CCCCCCCCCCCCCCOc1ccc(S(=O)(=O)c2cnc3ccc([S+](C)[O-])cc3c2N2CCC(N3CCC(N4CCCC(O)C4)CC3)CC2)cc1F (stereo not shown) [compound 367, 1″-(3-((3-fluoro-4-(tetradecyloxy)phenyl)sulfonyl)-6-(methylsulfinyl)quinolin-4-yl)-[1,4′:1′,4″- terpiperidin]-3-ol]	0

Same assay, conditions: Conc. 40 μm

SMILES	48 hrs (morphology observations after 48 hours)
COc1ccc(S(=O)(=O)c2cnc3cc(OC)c(OC)cc3c2N2CCC(c3ccc(CN4CCCC4)cc3)CC2)cc1 [compound 312, 6,7-dimethoxy-3-((4-methoxyphenyl)sulfonyl)-4-(4-(4-(pyrrolidin-1-ylmethyl)phenyl)piperidin-1-yl)quinoline]	**** (100% of endothelial cells vesicularize in cell shape and look flattened in morphology (indicating disintegration of the cell body))
CCCCOc1ccc(S(=O)(=O)c2cnc3ccc(SC)cc3c2N2CCC(N3CCC(N4CCCCC4)CC3)CC2)cc1 [compound 231, 4-([1,4′:1′,4″-terpiperidin]-1″-yl)-3-((4-butoxyphenyl)sulfonyl)-6-(methylthio)quinoline]	*** (100% of endothelial cells vesicularize in cell shape)
CCN(c1c(S(=O)(=O)c2ccc(OC)cc2)cnc2cc(OC)c(OC)cc12)C(C)C [compound 294, N-ethyl-N-isopropyl-6,7-dimethoxy-3-((4-methoxyphenyl)sulfonyl)quinolin-4-amine]	* (50% or less of cells vesicularize in cell shape)
CCCCOc1ccc(S(=O)(=O)c2cnc3ccc(SC)cc3c2N2CCC(N3CCCN(C)CC3)CC2)cc1 [compound 234, 3-((4-butoxyphenyl)sulfonyl)-4-(4-(4-methyl-1,4-diazepan-1-yl)piperidin-1-yl)-6-(methylthio)quinoline]	*** (100% of endothelial cells vesicularize in cell shape)
COc1ccc(S(=O)(=O)c2cnc3ccc(SC)cc3c2NN2CCN(C)CC2)cc1 [compound 226, 3-((4-methoxyphenyl)sulfonyl)-N-(4-methylpiperazin-1-yl)-6-(methylthio)quinolin-4-amine]	* (50% or less of cells vesicularize in cell shape)
CCCCOc1ccc(S(=O)(=O)c2cnc3ccc(C(=O)OCC)cc3c2N2CCC(N3CCCC(O)C3)CC2)cc1 (stereo not shown) [compound 177, ethyl 3-((4-butoxyphenyl)sulfonyl)-4-(3-hydroxy-[1,4′-bipiperidin]-1′-yl)quinoline-6-carboxylate]	**** (100% of endothelial cells vesicularize in cell shape and look flattened in morphology (indicating disintegration of the cell body))
CCCCOc1ccc(S(=O)(=O)c2cnc3ccc([S+](C)[O-])cc3c2N2CCC(N3CCC(N4CCCCC4)CC3)CC2)cc1 (stereo not shown) [compound 237, 4-([1,4′:1′,4″-terpiperidin]-1″-yl)-3-((4-butoxyphenyl)sulfonyl)-6-(methylsulfinyl)quinoline]	*** (100% of endothelial cells vesicularize in cell shape)
CCCCCCCOc1ccc(S(=O)(=O)c2cnc3ccc(SC)cc3c2N2CCC(N3CCC(O)CC3)CC2)cc1 [compound 223, 1′-(3-((4-(heptyloxy)phenyl)sulfonyl)-6-(methylthio)quinolin-4-yl)-[1,4′-bipiperidin]-4-ol]	*** (100% of endothelial cells vesicularize in cell shape)
